PMC4706560

Biological target: T1, Desmoglein 3 (human (endogenous in HaCaT)) (UniProt P32926)
T1 sequence: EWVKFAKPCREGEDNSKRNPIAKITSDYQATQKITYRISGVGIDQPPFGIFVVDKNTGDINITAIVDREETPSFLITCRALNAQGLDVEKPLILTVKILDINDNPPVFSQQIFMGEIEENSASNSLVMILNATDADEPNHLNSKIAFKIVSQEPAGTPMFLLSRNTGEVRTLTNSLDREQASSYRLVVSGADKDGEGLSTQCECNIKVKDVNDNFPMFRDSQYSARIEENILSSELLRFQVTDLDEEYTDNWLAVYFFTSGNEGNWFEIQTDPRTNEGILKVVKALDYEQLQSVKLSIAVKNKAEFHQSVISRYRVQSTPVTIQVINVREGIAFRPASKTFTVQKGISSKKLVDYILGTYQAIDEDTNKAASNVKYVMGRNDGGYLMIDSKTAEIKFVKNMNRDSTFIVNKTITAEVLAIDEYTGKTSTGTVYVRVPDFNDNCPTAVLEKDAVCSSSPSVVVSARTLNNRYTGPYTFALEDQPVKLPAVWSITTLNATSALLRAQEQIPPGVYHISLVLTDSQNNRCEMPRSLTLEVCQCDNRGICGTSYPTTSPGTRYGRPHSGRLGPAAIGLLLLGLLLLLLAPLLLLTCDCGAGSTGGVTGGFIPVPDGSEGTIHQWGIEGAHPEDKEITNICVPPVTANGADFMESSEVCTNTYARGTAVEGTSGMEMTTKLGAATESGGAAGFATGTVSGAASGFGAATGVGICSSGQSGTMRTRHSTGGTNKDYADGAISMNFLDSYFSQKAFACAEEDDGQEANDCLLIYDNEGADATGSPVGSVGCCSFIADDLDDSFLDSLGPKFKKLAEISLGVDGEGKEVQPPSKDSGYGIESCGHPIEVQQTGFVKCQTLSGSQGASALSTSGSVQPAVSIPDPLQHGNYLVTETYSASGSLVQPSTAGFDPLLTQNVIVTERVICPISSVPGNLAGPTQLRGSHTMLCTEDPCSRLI
Assay: co-IP; immunoprecipitation with mouse antibody against Dsg3 from Triton X-100-soluble and -insoluble fractions of HaCaT cells, 500 µg protein of each fraction; Western blotting

## E-cadherin (human (endogenous in HaCaT))
  binding: binds

Results are given in words; binding and its absence hold for the method and conditions named. Binding seen in cells or lysates may run through a third protein. Binding calls can cover weak binding; strength is not graded here.
